# Results as given in the supplement of paper PMC10338343.
# ± gives the standard deviation. This is a selection; strong and weak results do not stand in their true shares. Many of these values have a large error. The list shows a part of the results.
# How the values were obtained:
# [1] = tested on: MILI (PIWIL2) piRISC loaded with L1MC piRNA (26 nt); assay: pre-steady-state target cleavage rate (min^-1); higher = faster piRNA-guided slicing of the target; details: guide: L1MC piRNA 5'p-UAACUAAAUACUAUGCAAGCUGUAGG
# Method in brief: (§1)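 Cleave-'n-Seq: 1 nM active affinity-purified piRISC with one synthetic guide and 0.1 nM transcribed, DNA-blocked target RNA library were mixed, with or without 500 nM GTSF1 partner protein, in HEPES–potassium acetate buffer at 33 °C for 0–8 or 0–960 min. Uncleaved targets were sequenced and normalised to depth and to weakly complementary targets, three trials were pooled, and k3 was capped at 0.0001 min^-1. The pre-steady-state cleavage rate was fitted […].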
# [2] = tested on: MIWI (PIWIL1) piRISC loaded with L1MC piRNA (30 nt); assay: as above; details: guide: L1MC piRNA 5'p-UAACUAAAUACUAUGCAAGCUGUAGGUCCU
# Method in brief: as §1
# [3] = tested on: EfPiwi piRISC loaded with L1MC piRNA (26 nt); assay: pre-steady-state target cleavage rate (min^-1); guide: L1MC piRNA 5'p-UAACUAAAUACUAUGCAAGCUGUAGG; MIWI and MILI are mouse PIWI proteins and EfPiwi is from a freshwater sponge; tags in brackets are library labels; higher = faster piRNA-guided slicing of the target; details: auxiliary factor: 500 nM Ephydatia muelleri Gtsf1
# Method in brief: as §1
# [4] = auxiliary factor: 500 nM mouse GTSF1
# [5] = auxiliary factor: none (no GTSF1)
Sequence,"pre-steady-state target cleavage rate [1, 4]","pre-steady-state target cleavage rate [1, 5]","pre-steady-state target cleavage rate [2, 4]","pre-steady-state target cleavage rate [2, 5]",pre-steady-state target cleavage rate [3]
UCCUGGAUGUCGAUGCAUAGUUUUAGUUA,0.000679 ± 0.015,0.000438 ± 0.012,0.000537 ± 0.02,0.00112 ± 0.0058,0.000275 ± 0.013
UCCUGCUACAGCUUGCAUAUUAUUUAGUUA,0.11 ± 0.016,0.00413 ± 0.0024,1.31 ± 0.066,0.0449 ± 0.0088,0.0119 ± 0.0034
UCCUGGAACAGCUUGCAUAGUUAUUUCAAA,,0.000561 ± 0.01,,0.000939 ± 0.0048,0.00079 ± 0.0044
UCCUCCUACAGCAAGCAUAGUAUUUACAAA,,0.00122 ± 0.0045,,0.00117 ± 0.006,0.00211 ± 0.0045
UCCUGGAACAGCUUCCAUAGUAUAUAGUUA,,0.000695 ± 0.0074,,0.0012 ± 0.0045,0.000948 ± 0.0033
UCCUGGAUCACCUUGCAUAGUAUUUAGAAA,,0.001 ± 0.0053,,0.00141 ± 0.0032,0.00171 ± 0.004
UCCUGGUACAGCUUGCAUACUAUUUACAAA,,0.00193 ± 0.0045,,0.00182 ± 0.0044,0.000922 ± 0.0046
UCCUGGUACAGCUUCCAUAGUAUUUAGUUA,,0.00214 ± 0.0047,,0.00235 ± 0.0026,0.00258 ± 0.0017
UCCUCCUACAGCUUGCAUAGUAUUUAUUA,,0.00138 ± 0.0052,,0.00152 ± 0.0046,0.00539 ± 0.0031
UCCUGGAUCAGCUUGCAUAGUAUUUAGCUA,0.00534 ± 0.0036,0.000457 ± 0.013,0.0164 ± 0.0052,0.00651 ± 0.0022,0.00129 ± 0.0046
UCCUGGAUGAGCUUCCAUAGUAUUUACUUA,,0.000382 ± 0.017,,0.000864 ± 0.0087,0.00113 ± 0.0052
UCCUCCUACAGCUUCCAUAGUAUUUUGUUA,,0.000555 ± 0.0093,,0.00102 ± 0.0049,0.00145 ± 0.002
UCCUGGAUCAGCUUGGUAAGUAUUUAGUAA,0.0371 ± 0.011,0.00114 ± 0.0053,0.00119 ± 0.0074,0.000643 ± 0.011,0.00112 ± 0.0064
UCCUGGAUCAGCUUGCAUAGAUUUAGUUA,0.00178 ± 0.0063,0.000703 ± 0.0073,0.00212 ± 0.0062,0.0012 ± 0.0054,0.00198 ± 0.0033
UCCUGGAUCAGCUUCCAUACUAUUUAGUUA,,0.000334 ± 0.011,,0.000463 ± 0.011,0.000424 ± 0.0058
UCCUCUCUACAGCUUGCAUAGUAUUUAGUUA,0.28 ± 0.022,0.00895 ± 0.0022,0.797 ± 0.038,0.0529 ± 0.0081,0.0164 ± 0.006

# Exported tab-delimited: entries from further up.
Sequence	pre-steady-state target cleavage rate [1, 4]	pre-steady-state target cleavage rate [1, 5]	pre-steady-state target cleavage rate [2, 4]	pre-steady-state target cleavage rate [2, 5]	pre-steady-state target cleavage rate [3]
UCCUGGAUGUCGAUGCAUAGUUUUAGUUA	0.000679 ± 0.015	0.000438 ± 0.012	0.000537 ± 0.02	0.00112 ± 0.0058	0.000275 ± 0.013
UCCUGCUACAGCUUGCAUAUUAUUUAGUUA	0.11 ± 0.016	0.00413 ± 0.0024	1.31 ± 0.066	0.0449 ± 0.0088	0.0119 ± 0.0034
